Experimental data: article PMC7819943, “Rice protein-binding microarrays: a tool to detect cis-acting elements near promoter regions in rice”
The list shows a part of the results.

Sequences of proteins named here, by UniProt entry; tags and fusion partners are left off.
UniProt Q0JBA9, entry or part of it: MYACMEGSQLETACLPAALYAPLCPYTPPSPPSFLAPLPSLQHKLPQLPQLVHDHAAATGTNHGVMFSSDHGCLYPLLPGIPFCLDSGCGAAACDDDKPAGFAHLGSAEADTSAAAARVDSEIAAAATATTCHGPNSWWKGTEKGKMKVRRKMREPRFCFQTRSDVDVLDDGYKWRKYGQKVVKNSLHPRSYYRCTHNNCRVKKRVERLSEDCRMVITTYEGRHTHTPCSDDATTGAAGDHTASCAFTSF

Target: OsWRKY34 (Oryza sativa, UniProt Q0JBA9 1-250)
Experiment: protein-binding microarray (RPBM); PBS, 2% BSA, 51.3 ng/ul salmon testes DNA, 50 uM zinc acetate, 200 nM TF, 25 C, 1 h; high values mean tight binding
Settings: protein: recombinant; tags: N-terminal polyhistidine and DsRed monomer fusion (pET32a); label: CyDye5-dUTP incorporated in the synthesized complementary strand; 3' TTTTT single-stranded linker to array surface; dsDNA, one strand shown
Method in brief: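 Transcription factors were each fused at the N-terminus to a polyhistidine tag plus DsRed and expressed in E. coli BL21-CodonPlus before Ni–NTA purification. Binding to a double-stranded custom Agilent array was carried out with 200 nM protein at 25 °C for 1 h in PBS, 2% BSA, salmon testes DNA and 50 µM zinc acetate. The binding signal is per-feature fluorescence intensity, in arbitrary units, on an Axon 4000B scanner.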

Sequence	binding signal
CTCGATCGCCCGCTACCCGCACGCCGCCTTTTCGTCCCGGCGGAGTCACCTAGTGCAG	13100 fluorescence intensity (a.u.)
TCCTCCTCGCCGCCCGGCGAATCCCGCGCCTCCTCGCTTCCGGAGTCACCTAGTGCAG	9070 fluorescence intensity (a.u.)
TTCGTTTCAAAATATTTGACACCGTTGACTTTTTAGCACACGGAGTCACCTAGTGCAG	25700 fluorescence intensity (a.u.)
TGATACGTCGTCCTTATTTGAGTTAGTTTTTAAGTTTGTTCGGAGTCACCTAGTGCAG	9860 fluorescence intensity (a.u.)
TTCAGATTTTTGTTTCCAAGGGGTCCACTGCCAGTGAAAGCGGAGTCACCTAGTGCAG	8080 fluorescence intensity (a.u.)
TTCCAGACCTCATCCCATTTTCTTCCGTACACGCTTTCACCGGAGTCACCTAGTGCAG	11800 fluorescence intensity (a.u.)
TCTCGAATTTGCGTTAACCCTAGCTTCTGTTCTAGAAATCCGGAGTCACCTAGTGCAG	9390 fluorescence intensity (a.u.)
TTTTCAGTTATGGGTTCACTAAAGTAGGGTCATGTATAGACGGAGTCACCTAGTGCAG	9220 fluorescence intensity (a.u.)
AGAATTCCGATCGCCACCCCGCGGTTCTGCTCTCGCCGGCCGGAGTCACCTAGTGCAG	9150 fluorescence intensity (a.u.)
GGAGTTGGATTCGGCTTTCTGGGTTCTGTCTGTCGCTTGACGGAGTCACCTAGTGCAG	11000 fluorescence intensity (a.u.)
AATCCCCGAGCCGAACACTCGCTGGCGGGCGCGCGCGCGCCGGAGTCACCTAGTGCAG	8170 fluorescence intensity (a.u.)
GCTGGTGCTGGTGCTGTTGCTGTTAGATCGAGGAGGATTCCGGAGTCACCTAGTGCAG	11300 fluorescence intensity (a.u.)
TTGGTGTGATTGTGTATAGTGGCGAGCATCCGTTTGACATCGGAGTCACCTAGTGCAG	8200 fluorescence intensity (a.u.)
GATTTCAATCCTATAGGTAATTTTTCTTTGAGTCTATCTCCGGAGTCACCTAGTGCAG	8200 fluorescence intensity (a.u.)
TTTCTTAGTCAAACTTCTTGAAAGTTTGACCAAGTGTATACGGAGTCACCTAGTGCAG	10600 fluorescence intensity (a.u.)
GCTTCGTTCGCCCATCGCTTGTTGCTCCTCCCAGACTCGCCGGAGTCACCTAGTGCAG	8470 fluorescence intensity (a.u.)
TGTTCTTGTCTGTGATTGATAGCTGTATATGTCTCCCGGACGGAGTCACCTAGTGCAG	12300 fluorescence intensity (a.u.)
TATTTTGACATACTACACCTTAACATTTAATTTACATACTCGGAGTCACCTAGTGCAG	9200 fluorescence intensity (a.u.)
CTATATACTTGTACTTGTTATGTTCGGTGAACTGGCCTCTCGGAGTCACCTAGTGCAG	8030 fluorescence intensity (a.u.)
TTTGTTGCAACGGCGCATGTGGTGGGCGCGTGGTGGGGACCGGAGTCACCTAGTGCAG	8480 fluorescence intensity (a.u.)
CGCATCCCTTCCACTGACTCCACTGCTTCTCACCCAACTCCGGAGTCACCTAGTGCAG	10000 fluorescence intensity (a.u.)

Sequence	binding signal
CTCGCGCTCTCTCTGTCTCTTCGGCGGCAGTGTATATATACGGAGTCACCTAGTGCAG	8790 fluorescence intensity (a.u.)
GTTATTTTCCTTTTTGTGTTTCATGCAAATATTTTAAACCCGGAGTCACCTAGTGCAG	8120 fluorescence intensity (a.u.)
GCCCCACTTGCGTTGCCTCTTCCGGCCAACACACTGATCGCGGAGTCACCTAGTGCAG	10300 fluorescence intensity (a.u.)
TAGATTTTTCTTTTCCATTTGTCTTCTATAATTACTTTTCCGGAGTCACCTAGTGCAG	8480 fluorescence intensity (a.u.)
TTATATTTCTTCGTTGATTTGTGAAGGTCAGTTTGAAGGGCGGAGTCACCTAGTGCAG	8630 fluorescence intensity (a.u.)
ATCTGGCATCTACCAACTTTTATACTAGTTTATTTCTCTACGGAGTCACCTAGTGCAG	10700 fluorescence intensity (a.u.)
CAGATTACGCTGCATTTTTTTTTGTTCTCTCGCCTCCCATCGGAGTCACCTAGTGCAG	8220 fluorescence intensity (a.u.)
CCCGACCAATCCGCCGCCGCCACCGCTGCAACCAGCCGCCCGGAGTCACCTAGTGCAG	9060 fluorescence intensity (a.u.)
TCTTCGTATGCTATAGTGCTTCTGCTGCTGTGTTCCACTCCGGAGTCACCTAGTGCAG	8190 fluorescence intensity (a.u.)
CTATATTCTGTTGCATCATTTTTTGGGTGCTCTTTGACTTCGGAGTCACCTAGTGCAG	10000 fluorescence intensity (a.u.)
GTATACCCAATGCAAATTAGCAGCTATATTTTACATGTTTCGGAGTCACCTAGTGCAG	8560 fluorescence intensity (a.u.)
GATGTATGGGTGTTACATTATTTTTAGCTTTAAGTGCCACCGGAGTCACCTAGTGCAG	8860 fluorescence intensity (a.u.)
TTTGATAAGAACAGGCCCTGCTTTTTGTGCCCATACTGATCGGAGTCACCTAGTGCAG	8120 fluorescence intensity (a.u.)
CTCCCGGCCTCACCTTCTTCATCCACCACCACCAACGTCACGGAGTCACCTAGTGCAG	8400 fluorescence intensity (a.u.)
ATTTACCGGTTTTTCACTTGATTTCACGAAATTTCGAATTCGGAGTCACCTAGTGCAG	8750 fluorescence intensity (a.u.)
TCATGGTGTAATTAGTGTCAATCATTGGTTTTTGCATGCGCGGAGTCACCTAGTGCAG	8560 fluorescence intensity (a.u.)
TATCCACGTCATCCGCGGCGGCCGCCCGCCGTTTTCCCTTCGGAGTCACCTAGTGCAG	8210 fluorescence intensity (a.u.)
AATTAGATTTTCAGGGATTTATTTGTAAAATATTTTTTTTCGGAGTCACCTAGTGCAG	8950 fluorescence intensity (a.u.)
TTTCATTTTTTTAGCTAATACTTGATTTCGTTGTTTCGTTCGGAGTCACCTAGTGCAG	10200 fluorescence intensity (a.u.)
CAACTAAGGGGTATGTCTGCGCGCAAACGCTCGAATTTTTCGGAGTCACCTAGTGCAG	8440 fluorescence intensity (a.u.)
ATCCCCGACTCGACCACCACCGCCGCCGCGCGCCATCGCCCGGAGTCACCTAGTGCAG	8310 fluorescence intensity (a.u.)

An excerpt of these results, as a markdown table.

| Sequence | binding signal |
| --- | --- |
| CTCGATCGCCCGCTACCCGCACGCCGCCTTTTCGTCCCGGCGGAGTCACCTAGTGCAG | 13100 fluorescence intensity (a.u.) |
| TGTTCTTGTCTGTGATTGATAGCTGTATATGTCTCCCGGACGGAGTCACCTAGTGCAG | 12300 fluorescence intensity (a.u.) |
